Test results published in US20070122448A1, “Compositions and methods to create a vascularized environment for cellular transplantation” (priority 2005, published 2007).

Experiment: Total drug content of support loaded with HIF-1 alpha hydroxylase inhibitor, release into DI-water overnight, HPLC
Format: physicochemical
Conditions: 8 mm disc in 0.5 ml DI-water overnight
Method: 8 mm discs were prepared from the foam sheet described in Example 1 and placed in a 2 ml glass vial containing 0.5 ml of DI-water. The vial was then sealed and placed on a shaker overnight to ensure complete release of the drug content from the support into the solvent. The following day the support was removed from the vial and the solution was analyzed via HPLC to determine the total drug content. A C-18 column was used with a mobile phase composed of 50% methanol, and 50% water (pH=2.7; H2SO4). The flow rate was controlled at 1 ml/min. The injection volume was 10 μl and detection was done at 254 nm. The run time of the method was 30 minutes. A stock solution was prepared by dissolving the drug in pure water and stored in the refrigerator in an amber flask. The standard solutions were prepared by serial dilution of the stock solution. […] Linearity and reproducibility were assessed by duplicate injections of four standards.

CCOC(=O)c1ccc(O)c(O)c1 [ethyl-3,4-dihydroxybenzoate]
Total Drug content detected (200 μg drug added per 10 cm × 10 cm support sheet): 0.39 ng/8 mm support | Total Drug content detected (2000 μg drug added per 10 cm × 10 cm support sheet): 10.0 ng/8 mm support | Total Drug content detected (20,000 μg drug added per 10 cm × 10 cm support sheet): 92.7 ng/8 mm support
